No constants are given. Whether binding was seen depends on the method and setting. Binding seen in cells or lysates may run through a third protein. Some binding calls cover weakened binding; strength is not graded here.
Tests used:
[1] = biological target: AP-2α subunit of the AP-2 complex (mouse (endogenous in cortex)) (UniProt P17426); assay: co-IP; endogenous proteins, embryonic mouse cortex lysate (E12.5 / E12-14 in results and legends, E14-15 in the methods); antibody-coated Dynabeads Protein G, IgG as control; Co-IP buffer (50 mM Tris-HCl pH 7.4, 100 mM NaCl, 1% NP-40, 2 mM MgCl2), overnight at 4°C; detection by immunoblot
[2] = biological target: GCP3 component of γ-TuRC (mouse (endogenous in cortex)) (UniProt P58854); assay: co-IP; endogenous proteins, cortex lysate of 8-wk-old mice; antibody-coated Dynabeads Protein G, IgG as control; Co-IP buffer (50 mM Tris-HCl pH 7.4, 100 mM NaCl, 1% NP-40, 2 mM MgCl2), overnight at 4°C; detection by immunoblot
[3] = biological target: AP-2α subunit of the AP-2 complex (mouse (endogenous in cortex)) (UniProt P17426); assay: as above
[4] = biological target: GCP2 component of γ-TuRC (mouse (endogenous in cortex)) (UniProt Q921G8); assay: co-IP; endogenous proteins, embryonic mouse cortex lysate (E12.5 / E12-14 in results and legends, E14-15 in the methods); antibody-coated Dynabeads Protein G, IgG as control; Co-IP buffer (50 mM Tris-HCl pH 7.4, 100 mM NaCl, 1% NP-40, 2 mM MgCl2), overnight at 4°C; detection by immunoblot
[5] = biological target: GCP2 component of γ-TuRC (mouse (endogenous in cortex)) (UniProt Q921G8); assay: co-IP; endogenous proteins, cortex lysate of 8-wk-old mice; antibody-coated Dynabeads Protein G, IgG as control; Co-IP buffer (50 mM Tris-HCl pH 7.4, 100 mM NaCl, 1% NP-40, 2 mM MgCl2), overnight at 4°C; detection by immunoblot

The chains behind the UniProt entries cited, without tags or fusion partners.
UniProt P17426: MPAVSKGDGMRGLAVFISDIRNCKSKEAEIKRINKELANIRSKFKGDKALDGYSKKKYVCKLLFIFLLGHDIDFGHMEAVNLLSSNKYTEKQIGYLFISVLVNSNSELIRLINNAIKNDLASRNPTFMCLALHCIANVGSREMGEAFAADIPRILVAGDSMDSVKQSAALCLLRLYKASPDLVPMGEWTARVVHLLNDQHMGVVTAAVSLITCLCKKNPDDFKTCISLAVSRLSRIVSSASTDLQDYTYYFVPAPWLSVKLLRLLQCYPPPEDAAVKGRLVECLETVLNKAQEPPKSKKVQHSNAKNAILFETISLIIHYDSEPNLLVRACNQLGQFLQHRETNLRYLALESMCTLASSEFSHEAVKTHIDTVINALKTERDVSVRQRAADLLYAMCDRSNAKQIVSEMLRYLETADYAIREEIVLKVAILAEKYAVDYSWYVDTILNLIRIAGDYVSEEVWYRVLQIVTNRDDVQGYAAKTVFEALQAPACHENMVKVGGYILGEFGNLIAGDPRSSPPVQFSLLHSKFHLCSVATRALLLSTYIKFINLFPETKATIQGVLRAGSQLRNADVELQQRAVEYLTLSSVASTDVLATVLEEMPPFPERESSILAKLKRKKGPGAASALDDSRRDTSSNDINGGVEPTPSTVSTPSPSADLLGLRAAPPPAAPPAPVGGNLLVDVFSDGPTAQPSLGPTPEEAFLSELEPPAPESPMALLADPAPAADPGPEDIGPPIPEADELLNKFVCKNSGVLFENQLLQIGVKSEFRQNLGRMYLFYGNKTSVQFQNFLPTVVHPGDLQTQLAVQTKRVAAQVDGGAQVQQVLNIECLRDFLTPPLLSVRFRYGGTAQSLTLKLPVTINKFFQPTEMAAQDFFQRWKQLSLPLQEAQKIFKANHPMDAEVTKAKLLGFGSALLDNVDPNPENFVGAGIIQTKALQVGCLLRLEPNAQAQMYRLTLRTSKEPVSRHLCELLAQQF
UniProt P58854: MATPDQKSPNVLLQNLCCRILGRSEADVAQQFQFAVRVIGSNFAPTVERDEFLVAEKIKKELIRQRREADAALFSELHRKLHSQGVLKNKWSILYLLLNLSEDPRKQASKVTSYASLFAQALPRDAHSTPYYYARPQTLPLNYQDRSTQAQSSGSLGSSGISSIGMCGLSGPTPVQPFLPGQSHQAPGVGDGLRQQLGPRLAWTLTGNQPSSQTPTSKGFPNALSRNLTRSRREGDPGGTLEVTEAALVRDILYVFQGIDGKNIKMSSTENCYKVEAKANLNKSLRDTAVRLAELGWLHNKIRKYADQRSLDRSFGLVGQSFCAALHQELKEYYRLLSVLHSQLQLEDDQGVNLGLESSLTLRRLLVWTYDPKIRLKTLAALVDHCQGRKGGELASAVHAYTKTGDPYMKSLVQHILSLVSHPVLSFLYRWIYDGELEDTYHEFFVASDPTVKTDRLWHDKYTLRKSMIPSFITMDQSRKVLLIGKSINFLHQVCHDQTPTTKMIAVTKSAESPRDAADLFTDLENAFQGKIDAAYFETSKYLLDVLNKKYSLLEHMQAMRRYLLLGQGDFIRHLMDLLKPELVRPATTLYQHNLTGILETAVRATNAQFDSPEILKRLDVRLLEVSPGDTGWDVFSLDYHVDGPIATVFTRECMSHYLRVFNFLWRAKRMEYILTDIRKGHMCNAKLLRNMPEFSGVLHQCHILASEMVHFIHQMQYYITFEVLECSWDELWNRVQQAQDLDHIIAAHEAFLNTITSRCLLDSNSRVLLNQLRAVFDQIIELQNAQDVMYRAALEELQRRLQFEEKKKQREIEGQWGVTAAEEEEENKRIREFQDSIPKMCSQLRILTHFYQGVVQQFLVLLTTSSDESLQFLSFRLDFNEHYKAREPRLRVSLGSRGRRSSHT
UniProt Q921G8: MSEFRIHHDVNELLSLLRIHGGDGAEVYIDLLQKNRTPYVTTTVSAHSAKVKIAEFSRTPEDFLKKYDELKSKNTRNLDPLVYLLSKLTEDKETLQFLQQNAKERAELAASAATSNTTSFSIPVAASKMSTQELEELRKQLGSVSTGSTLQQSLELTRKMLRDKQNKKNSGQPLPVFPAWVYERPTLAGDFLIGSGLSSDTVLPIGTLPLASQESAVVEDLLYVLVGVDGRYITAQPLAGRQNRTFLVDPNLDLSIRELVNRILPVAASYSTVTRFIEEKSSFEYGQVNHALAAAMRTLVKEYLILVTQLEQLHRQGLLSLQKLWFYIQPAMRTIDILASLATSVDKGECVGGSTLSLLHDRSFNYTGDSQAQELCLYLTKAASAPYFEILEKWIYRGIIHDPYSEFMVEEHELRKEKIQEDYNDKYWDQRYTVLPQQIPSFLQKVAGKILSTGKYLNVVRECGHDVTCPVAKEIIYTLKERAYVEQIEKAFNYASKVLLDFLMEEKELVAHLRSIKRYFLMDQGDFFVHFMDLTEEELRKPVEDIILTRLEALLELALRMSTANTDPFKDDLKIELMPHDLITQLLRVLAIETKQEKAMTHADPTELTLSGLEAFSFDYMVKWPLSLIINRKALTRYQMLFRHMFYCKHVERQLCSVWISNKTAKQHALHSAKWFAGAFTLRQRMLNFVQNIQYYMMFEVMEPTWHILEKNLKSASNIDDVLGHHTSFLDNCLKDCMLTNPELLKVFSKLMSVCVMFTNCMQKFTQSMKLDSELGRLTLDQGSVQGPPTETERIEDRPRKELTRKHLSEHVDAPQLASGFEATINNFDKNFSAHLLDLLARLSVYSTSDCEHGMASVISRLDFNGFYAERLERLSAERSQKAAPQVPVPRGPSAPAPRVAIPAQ
UniProt Q9D4F8: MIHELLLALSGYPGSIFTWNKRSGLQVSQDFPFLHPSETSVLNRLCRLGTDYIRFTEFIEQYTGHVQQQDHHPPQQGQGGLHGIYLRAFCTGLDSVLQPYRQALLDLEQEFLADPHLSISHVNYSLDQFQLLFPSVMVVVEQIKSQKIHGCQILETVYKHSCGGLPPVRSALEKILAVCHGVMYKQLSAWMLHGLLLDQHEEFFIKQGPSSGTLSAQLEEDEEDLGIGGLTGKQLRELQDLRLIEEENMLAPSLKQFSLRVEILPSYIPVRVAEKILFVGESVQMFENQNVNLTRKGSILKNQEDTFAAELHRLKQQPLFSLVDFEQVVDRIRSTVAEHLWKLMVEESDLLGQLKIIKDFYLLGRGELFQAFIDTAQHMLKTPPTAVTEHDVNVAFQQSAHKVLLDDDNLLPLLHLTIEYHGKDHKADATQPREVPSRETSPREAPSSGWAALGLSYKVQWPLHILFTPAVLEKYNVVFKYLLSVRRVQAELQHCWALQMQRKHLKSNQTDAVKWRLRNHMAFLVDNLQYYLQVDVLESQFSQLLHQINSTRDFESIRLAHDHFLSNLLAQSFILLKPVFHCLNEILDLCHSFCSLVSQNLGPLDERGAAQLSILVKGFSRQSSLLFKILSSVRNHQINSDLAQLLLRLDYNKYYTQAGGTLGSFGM

Row | Substance | binding [1] | binding [2] | binding [3] | binding [4] | binding [5]
1 | GCP4 component of γ-TuRC (from UniProt Q9D4F8 1-667) | binds |  |  |  | 
2 | GCP2 component of γ-TuRC (from UniProt Q921G8 1-905) |  | binds | binds |  | 
3 | AP-2α subunit of the AP-2 complex (from UniProt P17426 1-977) |  | binds |  | binds | binds
4 | GCP3 component of γ-TuRC (from UniProt P58854 1-905) | binds |  | binds |  | 

Reference: PMC10716017
